These are yes or no findings as the source states them, for the method shown. For some assays here: Binding seen in cells or lysates may run through a third protein. Some binding calls cover weakened binding; strength is not graded here.

Chains of the proteins cited; added tags and fusions are not shown. Residues count along the entry.
UniProt P25799, residues 1-431: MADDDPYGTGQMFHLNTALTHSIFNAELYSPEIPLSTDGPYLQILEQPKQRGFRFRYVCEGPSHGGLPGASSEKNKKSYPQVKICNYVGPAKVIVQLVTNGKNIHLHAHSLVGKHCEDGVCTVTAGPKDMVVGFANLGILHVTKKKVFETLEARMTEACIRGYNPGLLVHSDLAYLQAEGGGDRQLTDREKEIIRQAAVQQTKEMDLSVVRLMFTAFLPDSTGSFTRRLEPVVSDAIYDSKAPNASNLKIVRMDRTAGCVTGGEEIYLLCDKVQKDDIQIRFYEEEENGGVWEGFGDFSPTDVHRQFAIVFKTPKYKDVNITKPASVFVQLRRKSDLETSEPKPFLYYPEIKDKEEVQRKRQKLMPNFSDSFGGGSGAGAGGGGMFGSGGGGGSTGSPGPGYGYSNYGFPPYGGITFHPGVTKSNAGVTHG

Experiment [1] addresses p50 subunit of NF-κB (mouse) (UniProt P25799). Briefly: summary of the filing's own immunoprecipitation finding.
For experiment [2] the target is unchanged. As to the kind of experiment: co-immunoprecipitation from peritoneal macrophage lysates, immunoblot with α-IκB-ζ.

B1: IκB-ζ (protein, mouse, UniProt Q9EST8 1-728, looked up)
chain: MIVDKLLDDSRGGEGLLDAAGDCGLMTSPLNLAYFYGASPPSAPGAGDTGYLSAVPSAPGSPGSDSSDFSSTSSVSSCGAVESRPRGGARAERPQVEPHMGVGRQQRGPFQGVRVKNSVKELLLHIRSNKQKASGQPVDEFKTQSVNIEQLTDLKSAVSAVGKRKGPDPLSDGPVCKRPALLPSHFVTSPQTPTPGESMEDVRHSESKLDSSAALLQNIINIKNECNPVSLNTVQVSWMSPTVPQNSPRDQCQDFHGGQAFSPPQKYQPFQVSGSPQMMDQASMYQYSPQTQNMQQPPPLPPQQQHQQNYPHNSPLQFSPYSRMSQSPKYDSNLFDTHEPQFCTGQSFVSLLTGPGEPESLAVPVPAPTSIPPQTETQLQTFSLMPSNACEAVVGVHDVGSHSLGTSLSLQNIMGSPMNTTQLGKSFFQWQVEQEESKLANIPQDQFLARDGDGDTFLHIAVAQGRRALSYVLARKMNALHMLDIKEHNGQSAFQVAVAANQHLIVQDLVNLGAQVNTTDCWGRTPLHVCAEKGHSQVLQAIQKGAVRSNQFVDLEATNYDGLTPLHCAVVAHNAVVHELQRNRQSHSPEVQDLLLRNKSLVDTIKCLIQMGAAVEAKDRKSGRTALHLAAEEANLELIRLFLELPSCLSFVNAKAYNGNTALHVAASLQYRVTQLDAVRLLMRKGADPSTRNLENEQPVHLVPDGPVGEQIRRILKGKSIQQRAPPY
For B1, the binding result in experiment [1] and in experiment [2] was “binds” throughout.

The record behind these values is patent publication US20090158447A1, “TLR ligand and IL-1 Response-Injured Animal Model” (priority 2004, published 2009).
